{
  "source": "PubChem BioAssay AID258",
  "about": "(DTP/NCI, 2004)",
  "system": "CD2F1 mice, L1210 leukemia sc, survival T/C",
  "assay": "NCI In Vivo Anticancer Drug Screen. Data for tumor model L1210 Leukemia (subcutaneous) in CD2F1 (CDF1) mice",
  "settings": "T/C endpoint: median survival time, higher T/C = longer survival",
  "procedure": "The antitumor activity of compounds was measured in mice bearing transplantable tumors. Survival or tumor size were measured and the results are expressed as the measurement made in the treated group (T) divided by the measurement made in the vehicle treated control group (C). The tumor model used in this assay is L1210 Leukemia (subcutaneous) in CD2F1 (CDF1) mice",
  "note": "The list shows only some results of the screen, not a fair sample: it gathers some chemical classes. Not every dose and run of a compound is shown. T/C gives the treated animals as a percentage of the vehicle group. For survival time, this PubChem deposit counts one and a half times the control or more as active, and values a quarter to a half above the control carry no call in these data; other NCI protocols may use other cut-offs. Schedules are NCI's codes, taken here to give the interval after Q, in days (D) or hours (H), and the number of doses after X. Some entries show no survivor count and are marked so; the dose need not have been tolerated. Some schedule codes hold Z or #, which are not explained here.",
  "data": [
    {"smiles": "NCCN(CCCl)CCCl", "values": [
      {"measurement": "T/C", "setting": "dose: 0.5 mg/kg/injection, schedule: Q01DX009 (ip), vehicle: saline", "value": "103 % of control"},
      {"measurement": "T/C", "setting": "dose: 1.0 mg/kg/injection, schedule: Q01DX009 (ip), vehicle: saline", "value": "101 % of control"},
      {"measurement": "T/C", "setting": "dose: 2.0 mg/kg/injection, schedule: Q01DX009 (ip), vehicle: saline", "value": "135 % of control"}
    ]},
    {"smiles": "O=C(O)c1ccc(N(CCCl)CCCl)cc1", "values": [
      {"measurement": "T/C", "setting": "dose: 23.4 mg/kg/injection, schedule: Q01DX Z (sc), vehicle: methylcellulose (MC)", "value": "105 % of control [survivor count not shown]"},
      {"measurement": "T/C", "setting": "dose: 64.8 mg/kg/injection, schedule: Q01DX Z (sc), vehicle: methylcellulose (MC)", "value": "105 % of control [survivor count not shown]"},
      {"measurement": "T/C", "setting": "dose: 108.0 mg/kg/injection, schedule: Q01DX Z (sc), vehicle: methylcellulose (MC)", "value": "105 % of control [survivor count not shown]"}
    ]},
    {"smiles": "Nc1ncnc2c1ncn2CCN(CCCl)CCCl", "values": [
      {"measurement": "T/C", "setting": "dose: 1.85 mg/kg/injection, schedule: Q01DX Z (sc), vehicle: saline", "value": "100 % of control [survivor count not shown]"},
      {"measurement": "T/C", "setting": "dose: 3.75 mg/kg/injection, schedule: Q01DX Z (sc), vehicle: saline", "value": "94 % of control [survivor count not shown]"},
      {"measurement": "T/C", "setting": "dose: 7.5 mg/kg/injection, schedule: Q01DX Z (sc), vehicle: saline", "value": "105 % of control [survivor count not shown]"},
      {"measurement": "T/C", "setting": "dose: 15.0 mg/kg/injection, schedule: Q01DX Z (sc), vehicle: saline", "value": "117 % of control [survivor count not shown]"},
      {"measurement": "T/C", "setting": "dose: 30.0 mg/kg/injection, schedule: Q01DX Z (sc), vehicle: saline", "value": "105 % of control [survivor count not shown]"}
    ]},
    {"smiles": "ClCCN(CCCl)Cc1nc2ccc(Cl)cc2[nH]1", "values": [
      {"measurement": "T/C", "setting": "dose: 8.4 mg/kg/injection, schedule: Q01DX Z (sc), vehicle: methylcellulose (MC)", "value": "100 % of control [survivor count not shown]"},
      {"measurement": "T/C", "setting": "dose: 14.0 mg/kg/injection, schedule: Q01DX Z (sc), vehicle: methylcellulose (MC)", "value": "100 % of control [survivor count not shown]"},
      {"measurement": "T/C", "setting": "dose: 23.0 mg/kg/injection, schedule: Q01DX Z (sc), vehicle: methylcellulose (MC)", "value": "100 % of control [survivor count not shown]"},
      {"measurement": "T/C", "setting": "dose: 39.0 mg/kg/injection, schedule: Q01DX Z (sc), vehicle: methylcellulose (MC)", "value": "95 % of control [survivor count not shown]"}
    ]}
  ]
}
